Results: publication PMC11008263
No constants are given. Whether binding was seen depends on the method and setting. In cells and extracts the contact can be indirect. Some results given as binding are weak or reduced against the parent protein; the word gives no strength. Where a sequence is shown, tags or fusion partners need not be part of it.

Biological target: T1, Flag-PHB (UniProt P35232)
T1 sequence: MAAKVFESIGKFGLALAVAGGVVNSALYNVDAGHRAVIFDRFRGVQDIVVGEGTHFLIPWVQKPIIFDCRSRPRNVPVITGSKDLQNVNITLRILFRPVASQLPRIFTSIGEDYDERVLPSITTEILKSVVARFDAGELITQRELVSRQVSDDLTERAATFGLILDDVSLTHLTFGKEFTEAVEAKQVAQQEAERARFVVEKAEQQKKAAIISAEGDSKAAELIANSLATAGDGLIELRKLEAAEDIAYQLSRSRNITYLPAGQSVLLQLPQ
Assay: co-IP; lysates of transfected cells precleared with IgG and protein A/G Sepharose beads, flag antibody overnight at 4°C, protein A/G Sepharose beads 4 h, washed thrice with lysis buffer, immunoblotting

B1: PTPLAD1, endogenous (protein, UniProt Q9P035 1-362)
chain: MENQVLTPHVYWAQRHRELYLRVELSDVQNPAISITENVLHFKAQGHGAKGDNVYEFHLEFLDLVKPEPVYKLTQRQVNITVQKKVSQWWERLTKQEKRPLFLAPDFDRWLDESDAEMELRAKEEERLNKLRLESEGSPETLTNLRKGYLFMYNLVQFLGFSWIFVNLTVRFCILGKESFYDTFHTVADMMYFCQMLAVVETINAAIGVTTSPVLPSLIQLLGRNFILFIIFGTMEEMQNKAVVFFVFYLWSAIEIFRYSFYMLTCIDMDWKVLTWLRYTLWIPLYPLGCLAEAVSVIQSIPIFNETGRFSFTLPYPVKIKVRFSFFLQIYLIMIFLGLYINFRHLYKQRRRRYGQKKKKIH
Which binding does the source give for B1 here?
The binding was “binds”.
